Experimental data: article PMC11447106 (Clinical and Translational Medicine, 2024)
These are yes or no findings as the source states them, for the method shown. Binding seen in cells or lysates may run through a third protein. Some entries that bind do so weakly or less than the wild type. Sequences can lack the tags named with a protein.

Molecular target: T1, Nuclear transcription factor erythroid 2p45 (NF-E2)-related factor 2 (NRF2), endogenous (human (endogenous in NCI-H1299)) (UniProt Q16236)
T1 sequence: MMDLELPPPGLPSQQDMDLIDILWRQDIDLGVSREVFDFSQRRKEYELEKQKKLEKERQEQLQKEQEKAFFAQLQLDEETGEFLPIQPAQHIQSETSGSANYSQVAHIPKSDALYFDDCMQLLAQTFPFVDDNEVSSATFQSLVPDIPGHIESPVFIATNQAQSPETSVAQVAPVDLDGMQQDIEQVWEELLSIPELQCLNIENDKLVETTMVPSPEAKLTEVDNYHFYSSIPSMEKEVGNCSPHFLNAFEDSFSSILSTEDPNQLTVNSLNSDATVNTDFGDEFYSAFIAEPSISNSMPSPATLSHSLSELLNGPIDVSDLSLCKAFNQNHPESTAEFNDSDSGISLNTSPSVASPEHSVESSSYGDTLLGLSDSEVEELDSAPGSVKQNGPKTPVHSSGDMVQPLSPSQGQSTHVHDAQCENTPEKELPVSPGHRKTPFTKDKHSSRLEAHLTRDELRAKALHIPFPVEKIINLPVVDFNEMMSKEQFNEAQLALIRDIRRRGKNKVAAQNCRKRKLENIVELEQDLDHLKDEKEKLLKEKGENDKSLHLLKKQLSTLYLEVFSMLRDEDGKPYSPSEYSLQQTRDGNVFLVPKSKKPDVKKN
Experiment: co-IP; NCI-H1299 cells expressing Flag-tagged OGT^WT, OGT^T444E or OGT^T444A; NRF2 detected by immunoblot

B1: Flag-tagged OGT^WT (enzyme, UniProt O15294-3 1-1036)
chain: MASSVGNVADSTGLAELAHREYQAGDFEAAERHCMQLWRQEPDNTGVLLLLSSIHFQCRRLDRSAHFSTLAIKQNPLLAEAYSNLGNVYKERGQLQEAIEHYRHALRLKPDFIDGYINLAAALVAAGDMEGAVQAYVSALQYNPDLYCVRSDLGNLLKALGRLEEAKACYLKAIETQPNFAVAWSNLGCVFNAQGEIWLAIHHFEKAVTLDPNFLDAYINLGNVLKEARIFDRAVAAYLRALSLSPNHAVVHGNLACVYYEQGLIDLAIDTYRRAIELQPHFPDAYCNLANALKEKGSVAEAEDCYNTALRLCPTHADSLNNLANIKREQGNIEEAVRLYRKALEVFPEFAAAHSNLASVLQQQGKLQEALMHYKEAIRISPTFADAYSNMGNTLKEMQDVQGALQCYTRAIQINPAFADAHSNLASIHKDSGNIPEAIASYRTALKLKPDFPDAYCNLAHCLQIVCDWTDYDERMKKLVSIVADQLEKNRLPSVHPHHSMLYPLSHGFRKAIAERHGNLCLDKINVLHKPPYEHPKDLKLSDGRLRVGYVSSDFGNHPTSHLMQSIPGMHNPDKFEVFCYALSPDDGTNFRVKVMAEANHFIDLSQIPCNGKAADRIHQDGIHILVNMNGYTKGARNELFALRPAPIQAMWLGYPGTSGALFMDYIITDQETSPAEVAEQYSEKLAYMPHTFFIGDHANMFPHLKKKAVIDFKSNGHIYDNRIVLNGIDLKAFLDSLPDVKIVKMKCPDGGDNADSSNTALNMPVIPMNTIAEAVIEMINRGQIQITINGFSISNGLATTQINNKAATGEEVPRTIIVTTRSQYGLPEDAIVYCNFNQLYKIDPSTLQMWANILKRVPNSVLWLLRFPAVGEPNIQQYAQNMGLPQNRIIFSPVAPKEEHVRRGQLADVCLDTPLCNGHTTGMDVLWAGTPMVTMPGETLASRVAASQLTCLGCLELIAKNRQEYEDIAVKLGTDLEYLKKVRGKVWKQRISSPLFNTKQYTMELERLYLQMWEHYAAGNKPDHMIKPVEVTESA
binding: binds

B2: Flag-tagged OGT^T444A (enzyme, UniProt O15294-3 1-1036)
chain: MASSVGNVADSTGLAELAHREYQAGDFEAAERHCMQLWRQEPDNTGVLLLLSSIHFQCRRLDRSAHFSTLAIKQNPLLAEAYSNLGNVYKERGQLQEAIEHYRHALRLKPDFIDGYINLAAALVAAGDMEGAVQAYVSALQYNPDLYCVRSDLGNLLKALGRLEEAKACYLKAIETQPNFAVAWSNLGCVFNAQGEIWLAIHHFEKAVTLDPNFLDAYINLGNVLKEARIFDRAVAAYLRALSLSPNHAVVHGNLACVYYEQGLIDLAIDTYRRAIELQPHFPDAYCNLANALKEKGSVAEAEDCYNTALRLCPTHADSLNNLANIKREQGNIEEAVRLYRKALEVFPEFAAAHSNLASVLQQQGKLQEALMHYKEAIRISPTFADAYSNMGNTLKEMQDVQGALQCYTRAIQINPAFADAHSNLASIHKDSGNIPEAIASYRAALKLKPDFPDAYCNLAHCLQIVCDWTDYDERMKKLVSIVADQLEKNRLPSVHPHHSMLYPLSHGFRKAIAERHGNLCLDKINVLHKPPYEHPKDLKLSDGRLRVGYVSSDFGNHPTSHLMQSIPGMHNPDKFEVFCYALSPDDGTNFRVKVMAEANHFIDLSQIPCNGKAADRIHQDGIHILVNMNGYTKGARNELFALRPAPIQAMWLGYPGTSGALFMDYIITDQETSPAEVAEQYSEKLAYMPHTFFIGDHANMFPHLKKKAVIDFKSNGHIYDNRIVLNGIDLKAFLDSLPDVKIVKMKCPDGGDNADSSNTALNMPVIPMNTIAEAVIEMINRGQIQITINGFSISNGLATTQINNKAATGEEVPRTIIVTTRSQYGLPEDAIVYCNFNQLYKIDPSTLQMWANILKRVPNSVLWLLRFPAVGEPNIQQYAQNMGLPQNRIIFSPVAPKEEHVRRGQLADVCLDTPLCNGHTTGMDVLWAGTPMVTMPGETLASRVAASQLTCLGCLELIAKNRQEYEDIAVKLGTDLEYLKKVRGKVWKQRISSPLFNTKQYTMELERLYLQMWEHYAAGNKPDHMIKPVEVTESA
binding: binds
